Results are given in words; binding and its absence hold for the method and conditions named. Some binding calls cover weakened binding; strength is not graded here.
Target: T1, AFP(248-256)Ac-248]amid (human)
T1 sequence (peptide, N-terminal acetylation; C-terminal carboxyamide): TKVNFTEIQ
Experiment: SPR affinity in solution

B1: mAb<AFP-L3>rRb-3C5-IgG (antibody, V domains shown)
VH: QSVEESGGRLVAPGTPLTLTCTVSGIDLSTYGMGWVRQAPGKGLEYIGIIDSGSTYYANWAKGRFTISKTSTTVDLKMTSLTTEDTATYFCARDRDPSSSGYYFKMWGPGTLVTVSL
VL: ALVMTQTPSSVSAAVGGTVTINCQASQSIGSYLAWYQQKPGQPPRLLIYGASNLESGVPSRFKGSGSGTEFTLTISDLECDDAATYYCQTAFYIFSSDNAFGGGTEVVVK
  binding: binds
